Laboratory results: patent US20220396819A1, “METHOD FOR PRODUCING PEPTIDE HAVING PHYSIOLOGICAL ACTIVITY, AND PEPTIDE COMPRISING SHORT LINKER” (priority 2019, published 2022)
At least one peptide structure holds a part that was inferred or is arguable (an end, a ring closure or a residue).

Biological target: T1, EpoR (Homo sapiens, UniProt P19235)
T1 construct: host or cells: cells included in the PathHunter eXpress EpoR-JAK2 Functional Assay Kit
T1 sequence (P19235 25-508): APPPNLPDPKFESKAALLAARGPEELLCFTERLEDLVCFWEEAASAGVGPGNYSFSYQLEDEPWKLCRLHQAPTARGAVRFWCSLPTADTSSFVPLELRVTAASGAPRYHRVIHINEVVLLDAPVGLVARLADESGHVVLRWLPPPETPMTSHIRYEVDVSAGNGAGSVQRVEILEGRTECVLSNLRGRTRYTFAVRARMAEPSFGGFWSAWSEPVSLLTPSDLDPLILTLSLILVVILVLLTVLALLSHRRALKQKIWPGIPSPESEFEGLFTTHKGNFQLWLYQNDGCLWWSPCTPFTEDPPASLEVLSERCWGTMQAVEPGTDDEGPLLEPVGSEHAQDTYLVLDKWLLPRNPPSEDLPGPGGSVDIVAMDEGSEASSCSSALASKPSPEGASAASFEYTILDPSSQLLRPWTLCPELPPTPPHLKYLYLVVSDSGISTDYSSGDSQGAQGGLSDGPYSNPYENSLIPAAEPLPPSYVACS
Assay: EpoR activation ability, PathHunter eXpress EpoR-JAK2 Functional Assay Kit
Format: cell-based
Description: The EpoR activation ability of the EPO-PAS dimer peptide was evaluated using PathHunter (registered trademark) eXpress EpoR-JAK2 Functional Assay Kit (DiscoverX).
Cells for EPO activity evaluation included in PathHunter (registered trademark) eXpress EpoR-JAK2 Functional Assay Kit were seeded on a 96-well plate and cultured for 24 hours at 37° C. under 5% CO2. […] As a negative control, the culture supernatant (FIG. 32, lane 18) obtained by culturing as described in Example 20 except for using a vector containing no gene for expressing the EPO-PAS dimer peptide, diluted at the same ratio as the culture supernatant containing AET-EPO-PAS8 or AET-EPO-PAS22, was added. […] The chemiluminescence intensity was quantified with a Nivo plate reader (Perkin Elmer).
The EpoR activation ability of the EPO-PAS dimer peptide linker variant was evaluated using PathHunter (registered trademark) eXpress EpoR-JAK2 Functional Assay Kit (DiscoverX).
Cells for EPO activity evaluation included in PathHunter (registered trademark) eXpress EpoR-JAK2 Functional Assay Kit were seeded on a 96-well plate and cultured for 24 hours at 37° C. under 5% CO2. […] The chemiluminescence intensity was quantified with a Nivo plate reader (Perkin Elmer).
The EpoR activation ability of the stabilized EPO-PAS dimer peptide was evaluated using PathHunter (registered trademark) eXpress EpoR-JAK2 Functional Assay Kit (DiscoverX). […]

`CSCC[C@@H]1NC(=O)[C@H](Cc2c[nH]cn2)NC(=O)[C@@H](NC(=O)[C@H](C)NC(=O)[C@H](Cc2ccc(O)cc2)NC(=O)[C@H](CC(C)C)NC(=O)CNC(=O)CN)CSSC[C@@H](C(=O)N[C@@H](CCC(N)=O)C(=O)N2CCC[C@H]2C(=O)N[C@@H](CC(C)C)C(=O)N[C@@H](CCCNC(=N)N)C(=O)NCC(=O)O)NC(=O)[C@H](C(C)C)NC(=O)[C@H](Cc2c[nH]c3ccccc23)NC(=O)[C@H]([C@@H](C)O)NC(=O)[C@H](CCSC)NC(=O)[C@@H]2CCCN2C(=O)CNC1=O` [EMP35, reference compound] was tested, and the EC50 (Example 22, Table 4, dimers as culture supernatant) was 0.0506 µM and the “activity lower than that of the EPO-PAS dimer peptide (fold)” value (from EC50 values, FIG. 36, Table 4) was “about 1000 times”.
